Source: US20240067654A1 (Kinoxis Therapeutics Pyt Ltd, priority 2020, published 2024)
At least one structure is not confirmed: it was looked up by name or label, or the drawing left a doubt.

Target: T1, OTR (Homo sapiens, UniProt P30559)
T1 sequence (P30559 1-389): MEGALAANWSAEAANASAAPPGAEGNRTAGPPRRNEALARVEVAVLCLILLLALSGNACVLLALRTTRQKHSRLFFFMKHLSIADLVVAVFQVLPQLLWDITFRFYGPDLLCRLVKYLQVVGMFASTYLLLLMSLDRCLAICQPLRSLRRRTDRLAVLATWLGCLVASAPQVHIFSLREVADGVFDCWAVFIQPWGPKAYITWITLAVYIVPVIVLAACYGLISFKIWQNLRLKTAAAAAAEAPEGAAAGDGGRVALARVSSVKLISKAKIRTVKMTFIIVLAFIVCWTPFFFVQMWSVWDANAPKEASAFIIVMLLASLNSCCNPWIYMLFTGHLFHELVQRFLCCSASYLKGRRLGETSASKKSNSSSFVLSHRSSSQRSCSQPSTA
Experiment: Modulation of oxytocin-evoked intracellular IP1 and Ca2+ increase: OT dose-response in presence and absence of 10 μM compound

SMILES: Cn1ncc2c1c1c(Cl)ncnc1n2C(=O)C1CCCCC1 [Compound 37]
- change in OT potency seen in OT dose-response curves (figure legend) (10 μM of compound): improvement in OT potency
- Relative Potency (OT potency with 10 μM compound relative to OT only, Table 7 group): 2.1
